This note sets out measurements from publication doi:10.1101/2025.01.07.631699.

Amino acid sequences for entries named in this document (tags omitted).
UniProt P48727: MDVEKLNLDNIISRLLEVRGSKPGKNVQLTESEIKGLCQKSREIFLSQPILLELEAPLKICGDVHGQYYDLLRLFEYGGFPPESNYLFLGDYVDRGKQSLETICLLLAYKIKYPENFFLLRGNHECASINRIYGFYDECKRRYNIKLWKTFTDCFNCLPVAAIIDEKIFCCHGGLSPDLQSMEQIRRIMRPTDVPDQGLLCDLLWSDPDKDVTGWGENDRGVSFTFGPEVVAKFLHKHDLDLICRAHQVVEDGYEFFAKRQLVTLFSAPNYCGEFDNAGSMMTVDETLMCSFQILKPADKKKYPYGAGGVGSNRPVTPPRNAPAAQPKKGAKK

No constants are given. Whether binding was seen depends on the method and setting. Binding seen in cells or lysates may run through a third protein. These calls come from enrichment with a bait or labelling near it, and not all partners need be listed.

The target in this assay is mNeonGreen tagged GSP-2 (C. elegans) (UniProt P48727). Kind of assay: affinity purification with mass spectrometry; mNeonGreen-Trap agarose beads with about 3 mg embryonic extract of the mNG::gsp-2 strain, 4°C for 1.5 h; IP buffer 100 mM KCl, 50 mM Tris pH 7.5, 1 mM MgCl2, 1 mM DTT, 5% glycerol, 0.2% NP-40, 1 mM EDTA; N2 strain as control; triplicate; DIA mass spectrometry.

For SZY-2(I-2) (from UniProt Q9N537), the binding result is reported as “binds”.
